US12390461B2, “Modulators of RAR-related orphan receptors (RORs)” (11949098 CANADA INC., priority 2018, dated 2025)

Tested on: Th17 polarization of human peripheral blood mononuclear cells
Assay: Th17 polarization assay (IL-17A positive cells by flow cytometry)
Type: cell-based
Conditions: PBMC, 10 nM compound, 48 hours, triplicates, average of 50% over the listed compounds, p<0.05, read-out: inhibition of the polarization of Th17 cells (percentage of IL17A positive cells relative to total CD4 T cells)
Text: This assay measures the phenotypic effects of the compounds on the production of interleukin 17A (IL-17A). IL-17A genes are regulated by ROR response elements (ROREs). Compounds that bind to ROR (LBD) can inhibit the binding of RORγ to ROREs DNA site. Compounds can also reduce the effect of the binding which is enhanced by the binding of the co-activator protein.
Peripheral blood mononuclear cells were isolated by density gradient centrifugation. The principle of this method is that components of the blood have different densities and can be separated according to their relative density. […] This medium is denser than lymphocytes, monocytes, and platelets and they remain about it, but less dense than granulocytes and erythrocytes, which will drop below it. […] Four layers were form, each containing different cell types—the uppermost layer contain containing plasma was removed by pipetting. PBMCs layer and is a characteristically white and cloudy “blanket” was gently removed using a 10 ml pipette and added to warm medium or PBS (1:3) to wash off any remaining platelets and centrifuged at 400×g for 10 minutes. The pelleted cells were counted, and the percentage viability estimated using Trypan blue staining. Cells were frozen for long-term storage. […]

O=C(Nc1sc2c(c1C(=O)N1CCN(Cc3ccccc3)CC1)CCCC2)c1ccccc1F [Compound 1, N-(3-(4-benzylpiperazine-1-carbonyl)-4,5,6,7-tetrahydro-benzo[b]thiophen-2-yl)-2-fluorobenzamide]
inhibition at 0.01 µM: 30 to 70%
